PubChem BioAssay AID652272 – Drosophila RNAi Screening Center – 2013

- Purpose: 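Finding fly genes that regulate Hedgehog signal transduction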 (primary screen)
- Cell system: Drosophila clone 8 (Cl8) cells
- Reagent: long dsRNA against Drosophila genes
- Read-out: 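Firefly light from a Hedgehog-responsive ptc promoter reporter and Renilla reference light, both read on a plate reader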
- Reading the numbers: firefly Hh reporter signal: higher = more ptc reporter light; Renilla reference signal: higher = more Renilla control light
- Hit rule: 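Hit when the z-score averaged over two replicates is under -2 or over +3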
- Meaning of the calls: active = hit: reporter lowered or raised; inactive = not a hit
In all, the deposit lists about 21,000 reagents; below is an unselected part of those with a known target gene and a result. In the full data, 503 (2.4%) were called active. 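Raw plate light values, not normalised; calls rest on replicate z-scores that were not deposited; hits include reporter decreases as well as increases.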 A number with no mark means an inactive call. The numbers tell different reagents against one gene apart. Names joined by + are all predicted targets of the reagent. Not given: the amount of reagent, the time to read-out.

gene | reagent no. | firefly Hh reporter signal, replicate 1 | firefly Hh reporter signal, replicate 2 | firefly Hh reporter signal, replicate 3 | Renilla reference signal, replicate 1 | Renilla reference signal, replicate 2
side-III (sidestep III) | 1 | 88112 | 97096 | – | 3665 | 2886
side-III (sidestep III) | 2 | 68192 | 49421 | – | 2288 | 1440
side-III (sidestep III) | 3 | 1.10e5 | 1.43e5 | – | 4514 | 4296
GstT4 (Glutathione S transferase T4) | 1 | 80405 | 1.02e5 | – | 2327 | 2149
CG4763 | 1 | 1.23e5 | 1.43e5 | – | 3244 | 7677
CG4763 | 2 | 77957 | 69850 | – | 1715 | 6912
spz3 (spatzle 3) | 1 | 81346 | 42305 | – | 2357 | 3895
spz3 (spatzle 3) | 2 | 1.17e5 | 62101 | – | 3168 | 5104
CG8916 | 1 | 54775 | 1.78e5 | – | 1863 | 7264
wa-cup (walker cup) | 1 | 69393 | 1.01e5 | – | 2136 | 2884
dpy (dumpy) | 1 | 4.86e5 | 1.58e5 | – | 24176 | 6912
dpy (dumpy) | 2 | 5.51e5 | 1.53e5 | – | 26569 | 6665
dpy (dumpy) | 3 | 1.08e5 | 60939 | – | 3072 | 6411
scro (scarecrow) | 1 | 4.13e5 | 1.70e5 | – | 19448 | 2884
scro (scarecrow) | 2 | 1.01e5 | 2.34e5 | – | 1789 | 9424
CG34462 | 1 | 63568 | 55331 | – | 8160 | 4378
COX5B (Cytochrome c oxidase subunit 5B) | 1 | 1.06e5 | 73940 | – | 2131 | 6236
CG10252 | 1 | 97542 | 93381 | – | 3588 | 3475
LIMK1 (LIM domain kinase 1) | 1 | 1.01e5 | 76057 | – | 2480 | 2032
CG7848 | 1 | 73041 | 56112 | – | 1954 | 4336
CG14118 | 1 | 29693 | 42386 | 43831 | 4640 | 3547
Jon65Aii (Jonah 65Aii) | 1 | 66419 | 55974 | – | 8678 | 4262
tud (tudor) | 1 | 78322 | 50348 | – | 2011 | 4784
nclb (no child left behind) | 1 | 65270 | 38553 | – | 1632 | 3303
CG9008 | 1 | 64306 | 43047 | – | 2882 | 2242
CG4884 | 1 | 85881 | 1.38e5 | – | 3298 | 4096
CG5515 | 1 | 91637 | 77693 | – | 4597 | 3036
CG12729 | 1 | 80771 | 1.61e5 | – | 2677 | 6290
CG10038 | 1 | 1.39e5 | 1.02e5 | – | 5697 | 4225
wda (will decrease acetylation) | 1 | 7.90e5 | 7.88e5 | 1.81e5 | 40579 | 4328
CG10969 | 1 | 33040 | 39316 | 59645 | 5168 | 4022
BBS1 (Bardet-Biedl syndrome 1) | 1 | 5.28e5 | 73926 | – | 2656 | 2656
CG13202 | 1 | 1.00e5 | 99497 | – | 2697 | 6188
dlt (discs lost) | 1 | 55977 | 37670 | – | 2518 | 2195
fzr (fizzy-related) | 1 | 68343 | 1.53e5 | – | 1706 | 5961
CG15923 | 1 | 94665 | 54996 | – | 4563 | 2434
CG17107 | 1 | 1.34e5 | 5.09e5 | 54770 | 2026 | 26763
Pstk + Tim9b | 1 | 1.20e5 | 1.05e5 | – | 2692 | 2664
Pstk + Tim9b | 2 | 99212 | 2.25e5 | – | 2874 | 9312
CG15756 | 1 | 50898 | 2.26e5 | – | 1296 | 8244
CG31760 | 1 | 1.01e5 | 43362 | – | 2456 | 3253
Rexo5 (RNA exonuclease 5) | 1 | 49200 | 56540 | – | 5284 | 4066
Nepl19 (Neprilysin-like 19) | 1 | 5.04e5 | 77946 | – | 3159 | 3159
Cyp4aa1 (Cytochrome P450 4aa1) | 1 | 61718 | 47997 | – | 1683 | 3469
CG4461 | 1 | 20464 | 46150 | 49304 | 3618 | 4038
CG32432 | 1 | 44951 (active) | 26512 | – | 2269 | 1369
CG32432 | 2 | 33034 (active) | 35052 | – | 1546 | 1577
CG32432 | 3 | 88872 | 1.04e5 | – | 3258 | 3108
CG42854 | 1 | 6.72e5 | 2.17e5 | – | 37190 | 4258
CG3386 | 1 | 93684 | 42187 | – | 3255 | 2923
Alms1b + Alms1a | 1 | 1.00e5 | 91659 | – | 283 | 2364
Spn38F (Serpin 38F) | 1 | 1.94e5 | 85805 | – | 4512 | 7388
CG6000 | 1 | 4.59e5 | 83323 | – | 23080 | 2289
PIP5K59B (Phosphatidylinositol 4-phosphate 5-kinase 59B) | 1 | 89472 | 63457 | – | 3204 | 2669
PIP5K59B (Phosphatidylinositol 4-phosphate 5-kinase 59B) | 2 | 99671 | 77804 | – | 2259 | 6268
Ir56a (Ionotropic receptor 56a) | 1 | 1.29e5 | 1.89e5 | – | 4118 | 8097
Marf (Mitochondrial assembly regulatory factor) | 1 | 82341 | 95472 | – | 1670 | 2291
prim (primacord) | 1 | 79821 | 73371 | – | 2042 | 4118
CG10863 | 1 | 1.24e5 | 1.38e5 | – | 4340 | 4211
tipE (temperature-induced paralytic E) | 1 | 96754 | 44248 | – | 3939 | 2048
Neos (Neosin) | 1 | 87344 | 97522 | – | 3862 | 3765
CG10591 | 1 | 1.38e5 | 1.05e5 | – | 5286 | 4300
bi (bifid) | 1 | 1.36e5 | 3.02e5 | – | 4709 | 10059
CG16739 | 1 | 73926 | 54122 | – | 1659 | 1680
CG17477 | 1 | 65249 | 72295 | – | 1184 | 1911
ihog (interference hedgehog) | 1 | 48732 | 83104 | – | 2812 | 2953
CG42747 | 1 | 43259 | 68999 | – | 1059 | 5543
CG42747 | 2 | 38825 | 93257 | – | 4561 | 5213
Prp8 (pre-mRNA processing factor 8) | 1 | 26272 (active) | 25633 | – | 2178 | 1997
Ufsp2 (UFM1 specific peptidase 2) | 1 | 1.17e5 | 54049 | – | 4448 | 2360
asrij | 1 | 92490 | 72787 | – | 2443 | 5732
NT5E-2 (Ecto-5'-nucleotidase 2) | 1 | 85632 | 75523 | – | 3609 | 2708
dpr15 (defective proboscis extension response 15) | 1 | 49747 | 2.01e5 | – | 10378 | 4120
dpr15 (defective proboscis extension response 15) | 2 | 80850 | 1.32e5 | – | 2016 | 3241
dpr15 (defective proboscis extension response 15) | 3 | 1.03e5 (active) | 1.43e5 | – | 1620 | 2234

Laid out differently: 6 of the entries above.
scro (scarecrow) #2
- firefly Hh reporter signal, replicate 1: 1.01e5
- firefly Hh reporter signal, replicate 2: 2.34e5
- Renilla reference signal, replicate 1: 1789
- Renilla reference signal, replicate 2: 9424

CG34462
- firefly Hh reporter signal, replicate 1: 63568
- firefly Hh reporter signal, replicate 2: 55331
- Renilla reference signal, replicate 1: 8160
- Renilla reference signal, replicate 2: 4378

COX5B (Cytochrome c oxidase subunit 5B)
- firefly Hh reporter signal, replicate 1: 1.06e5
- firefly Hh reporter signal, replicate 2: 73940
- Renilla reference signal, replicate 1: 2131
- Renilla reference signal, replicate 2: 6236

CG10252
- firefly Hh reporter signal, replicate 1: 97542
- firefly Hh reporter signal, replicate 2: 93381
- Renilla reference signal, replicate 1: 3588
- Renilla reference signal, replicate 2: 3475

LIMK1 (LIM domain kinase 1)
- firefly Hh reporter signal, replicate 1: 1.01e5
- firefly Hh reporter signal, replicate 2: 76057
- Renilla reference signal, replicate 1: 2480
- Renilla reference signal, replicate 2: 2032

CG7848
- firefly Hh reporter signal, replicate 1: 73041
- firefly Hh reporter signal, replicate 2: 56112
- Renilla reference signal, replicate 1: 1954
- Renilla reference signal, replicate 2: 4336
